Values are animals surviving of animals treated; these mice carried no tumour. Counts of survivors are from the toxicity check (mostly the fifth day) where no day follows; animals may have died later. Schedule codes are those of the source, taken here to give the interval after Q, in days (D) or hours (H), and the number of doses after X. Some entries were tested several times; the values are given in rising order.
Test system: B6D2F1 mice, nontumored toxicity test, survival
Assay: NCI In Vivo Anticancer Drug Screen. Data for tumor model Nontumored Animals (Toxicity Test) in B6D2F1 (BDF1) mice

Q: For O=c1[nH]cc(F)c(=O)[nH]1, which survivor count (dose: 50.0 mg/kg/injection, schedule: Q04DX003 (ip), vehicle: saline) is on record?
A: 8 of 8

Q: And the survivor count (dose: 50.0 mg/kg/injection, schedule: Q04DX005 (ip), vehicle: saline)?
A: 8 of 8

Q: And the survivor count (dose: 53.7 mg/kg/injection, schedule: Q01DX005 (sc), vehicle: other)?
A: 6 of 6

Q: What about the survivor count (dose: 53.7 mg/kg/injection, schedule: Q04DX002 (sc), vehicle: other) of the same molecule?
A: 6 of 6

Q: What about the survivor count (dose: 55.0 mg/kg/injection, schedule: Q01DX004 (other), vehicle: saline) of the same molecule?
A: 6 of 6

Q: And the survivor count (dose: 55.0 mg/kg/injection, schedule: Q01DX006 (other), vehicle: saline)?
A: 6 of 6

Q: What about the survivor count (dose: 55.0 mg/kg/injection, schedule: Q01DX008 (other), vehicle: saline) of the same molecule?
A: 6 of 6

Q: What about the survivor count (dose: 55.0 mg/kg/injection, schedule: Q01DX012 (other), vehicle: saline) of the same molecule?
A: 6 of 6

Q: And the survivor count (dose: 55.0 mg/kg/injection, schedule: Q01DX016 (other), vehicle: saline)?
A: 6 of 6

Q: And the survivor count (dose: 64.0 mg/kg/injection, schedule: Q04DX003 (ip), vehicle: water)?
A: 6 of 6

Q: What about the survivor count (dose: 67.1 mg/kg/injection, schedule: Q01DX002 (sc), vehicle: other) of the same molecule?
A: 6 of 6

Q: And the survivor count (dose: 67.1 mg/kg/injection, schedule: Q01DX005 (sc), vehicle: other)?
A: 6 of 6

Q: What about the survivor count (dose: 67.1 mg/kg/injection, schedule: Q04DX002 (sc), vehicle: other) of the same molecule?
A: 6 of 6

Q: What about the survivor count (dose: 68.7 mg/kg/injection, schedule: Q01DX004 (other), vehicle: saline) of the same molecule?
A: 6 of 6

Q: What about the survivor count (dose: 68.7 mg/kg/injection, schedule: Q01DX006 (other), vehicle: saline) of the same molecule?
A: 6 of 6

Q: What about the survivor count (dose: 68.7 mg/kg/injection, schedule: Q01DX008 (other), vehicle: saline) of the same molecule?
A: 6 of 6

Q: What about the survivor count (dose: 68.7 mg/kg/injection, schedule: Q01DX012 (other), vehicle: saline) of the same molecule?
A: 6 of 6

Q: And the survivor count (dose: 83.9 mg/kg/injection, schedule: Q01DX002 (sc), vehicle: other)?
A: 6 of 6

Q: And the survivor count (dose: 83.9 mg/kg/injection, schedule: Q04DX002 (sc), vehicle: other)?
A: 6 of 6

Q: And the survivor count (dose: 85.9 mg/kg/injection, schedule: Q01DX004 (other), vehicle: saline)?
A: 6 of 6

Q: And the survivor count (dose: 85.9 mg/kg/injection, schedule: Q01DX006 (other), vehicle: saline)?
A: 6 of 6

Q: What about the survivor count (dose: 85.9 mg/kg/injection, schedule: Q01DX008 (other), vehicle: saline) of the same molecule?
A: 6 of 6

Q: And the survivor count (dose: 100.0 mg/kg/injection, schedule: Q01DX001 (ip), vehicle: saline)?
A: 8 of 8

Q: And the survivor count (dose: 100.0 mg/kg/injection, schedule: Q04DX003 (ip), vehicle: saline)?
A: 8 of 8

Q: What about the survivor count (dose: 100.0 mg/kg/injection, schedule: Q04DX005 (ip), vehicle: saline) of the same molecule?
A: 8 of 8

Q: What about the survivor count (dose: 105.0 mg/kg/injection, schedule: Q01DX002 (sc), vehicle: other) of the same molecule?
A: 6 of 6

Q: And the survivor count (dose: 105.0 mg/kg/injection, schedule: Q04DX002 (sc), vehicle: other)?
A: 6 of 6

Q: What about the survivor count (dose: 107.0 mg/kg/injection, schedule: Q01DX002 (other), vehicle: saline) of the same molecule?
A: 6 of 6

Q: And the survivor count (dose: 107.0 mg/kg/injection, schedule: Q01DX004 (other), vehicle: saline)?
A: 6 of 6

Q: What about the survivor count (dose: 107.0 mg/kg/injection, schedule: Q01DX006 (other), vehicle: saline) of the same molecule?
A: 6 of 6

Q: And the survivor count (dose: 107.0 mg/kg/injection, schedule: Q01DX008 (other), vehicle: saline)?
A: 6 of 6

Q: And the survivor count (dose: 128.0 mg/kg/injection, schedule: Q04DX003 (ip), vehicle: water)?
A: 6 of 6

Q: And the survivor count (dose: 131.0 mg/kg/injection, schedule: Q01DX002 (sc), vehicle: other)?
A: 6 of 6

Q: What about the survivor count (dose: 131.0 mg/kg/injection, schedule: Q04DX002 (sc), vehicle: other) of the same molecule?
A: 6 of 6

Q: And the survivor count (dose: 131.0 mg/kg/injection, schedule: Q10DX002 (sc), vehicle: other)?
A: 6 of 6

Q: What about the survivor count (dose: 134.0 mg/kg/injection, schedule: Q01DX002 (other), vehicle: saline) of the same molecule?
A: 6 of 6

Q: And the survivor count (dose: 134.0 mg/kg/injection, schedule: Q01DX004 (other), vehicle: saline)?
A: 6 of 6

Q: What about the survivor count (dose: 134.0 mg/kg/injection, schedule: Q01DX006 (other), vehicle: saline) of the same molecule?
A: 6 of 6

Q: What about the survivor count (dose: 150.0 mg/kg/injection, schedule: Q01DX001 (ip), vehicle: saline) of the same molecule?
A: 10 of 10

Q: And the survivor count (dose: 164.0 mg/kg/injection, schedule: Q01DX001 (sc), vehicle: other)?
A: 6 of 6

Q: What about the survivor count (dose: 164.0 mg/kg/injection, schedule: Q01DX002 (sc), vehicle: other) of the same molecule?
A: 6 of 6

Q: What about the survivor count (dose: 164.0 mg/kg/injection, schedule: Q10DX002 (sc), vehicle: other) of the same molecule?
A: 6 of 6

Q: What about the survivor count (dose: 168.0 mg/kg/injection, schedule: Q01DX001 (other), vehicle: saline) of the same molecule?
A: 6 of 6

Q: What about the survivor count (dose: 168.0 mg/kg/injection, schedule: Q01DX002 (other), vehicle: saline) of the same molecule?
A: 6 of 6

Q: And the survivor count (dose: 168.0 mg/kg/injection, schedule: Q01DX004 (other), vehicle: saline)?
A: 6 of 6

Q: And the survivor count (dose: 168.0 mg/kg/injection, schedule: Q01DX006 (other), vehicle: saline)?
A: 6 of 6

Q: And the survivor count (dose: 175.0 mg/kg/injection, schedule: Q01DX001 (ip), vehicle: saline)?
A: 10 of 10

Q: What about the survivor count (dose: 200.0 mg/kg/injection, schedule: Q01DX001 (ip), vehicle: saline) of the same molecule?
A: 10 of 10 and 8 of 8

Q: What about the survivor count (dose: 200.0 mg/kg/injection, schedule: Q04DX003 (ip), vehicle: saline) of the same molecule?
A: 8 of 8

Q: What about the survivor count (dose: 205.0 mg/kg/injection, schedule: Q01DX001 (sc), vehicle: other) of the same molecule?
A: 6 of 6

Q: What about the survivor count (dose: 205.0 mg/kg/injection, schedule: Q10DX002 (sc), vehicle: other) of the same molecule?
A: 6 of 6

Q: What about the survivor count (dose: 210.0 mg/kg/injection, schedule: Q01DX001 (other), vehicle: saline) of the same molecule?
A: 6 of 6

Q: And the survivor count (dose: 210.0 mg/kg/injection, schedule: Q01DX002 (other), vehicle: saline)?
A: 6 of 6

Q: What about the survivor count (dose: 210.0 mg/kg/injection, schedule: Q01DX004 (other), vehicle: saline) of the same molecule?
A: 6 of 6

Q: What about the survivor count (dose: 225.0 mg/kg/injection, schedule: Q01DX001 (ip), vehicle: saline) of the same molecule?
A: 10 of 10

Q: And the survivor count (dose: 256.0 mg/kg/injection, schedule: Q01DX001 (sc), vehicle: other)?
A: 6 of 6

Q: What about the survivor count (dose: 256.0 mg/kg/injection, schedule: Q10DX002 (sc), vehicle: other) of the same molecule?
A: 6 of 6

Q: And the survivor count (dose: 262.0 mg/kg/injection, schedule: Q01DX001 (other), vehicle: saline)?
A: 6 of 6

Q: What about the survivor count (dose: 262.0 mg/kg/injection, schedule: Q01DX002 (other), vehicle: saline) of the same molecule?
A: 6 of 6

Q: And the survivor count (dose: 262.0 mg/kg/injection, schedule: Q01DX004 (other), vehicle: saline)?
A: 6 of 6

Q: And the survivor count (dose: 320.0 mg/kg/injection, schedule: Q01DX001 (sc), vehicle: other)?
A: 6 of 6

Q: And the survivor count (dose: 320.0 mg/kg/injection, schedule: Q10DX002 (sc), vehicle: other)?
A: 6 of 6

Q: What about the survivor count (dose: 328.0 mg/kg/injection, schedule: Q01DX001 (other), vehicle: saline) of the same molecule?
A: 6 of 6

Q: And the survivor count (dose: 328.0 mg/kg/injection, schedule: Q01DX002 (other), vehicle: saline)?
A: 6 of 6

Q: And the survivor count (dose: 400.0 mg/kg/injection, schedule: Q01DX001 (ip), vehicle: saline)?
A: 8 of 8

Q: And the survivor count (dose: 400.0 mg/kg/injection, schedule: Q01DX001 (sc), vehicle: other)?
A: 6 of 6

Q: What about the survivor count (dose: 410.0 mg/kg/injection, schedule: Q01DX001 (other), vehicle: saline) of the same molecule?
A: 6 of 6

Q: What about the survivor count (dose: 410.0 mg/kg/injection, schedule: Q01DX002 (other), vehicle: saline) of the same molecule?
A: 6 of 6

Q: What about the survivor count (dose: 512.0 mg/kg/injection, schedule: Q01DX001 (other), vehicle: saline) of the same molecule?
A: 6 of 6

Q: What about the survivor count (dose: 512.0 mg/kg/injection, schedule: Q01DX002 (other), vehicle: saline) of the same molecule?
A: 6 of 6

Q: What about the survivor count (dose: 640.0 mg/kg/injection, schedule: Q01DX001 (other), vehicle: saline) of the same molecule?
A: 6 of 6

Q: And the survivor count (dose: 800.0 mg/kg/injection, schedule: Q01DX001 (other), vehicle: saline)?
A: 6 of 6

Source: PubChem BioAssay AID186 (DTP/NCI, 2004)
